{"source": "PubChem BioAssay AID1259308 (NCATS, 2017)", "aim": "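Genes whose loss raises luciferase production in HEK293 cells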 (primary screen)", "cell system": "human HEK293 embryonic kidney cells stably expressing firefly luciferase (HEK-CMV-Luc2-Hygro)", "reagent": "single siRNA against human genes, 0.8 pmol siRNA per well", "duration": "72 h", "detection": "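Luciferase light (ONE-Glo) measured on one replicate plate set and viability (CellTiter-Glo) on the other, scaled to a negative control siRNA, with robust z-scores and luciferase per cell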", "reading the numbers": "total luciferase, z-score: higher = more reporter protein produced", "rule for the call": "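Active when the median/MAD z-score for overall luciferase is greater than 3; a gene was taken forward for validation with new siRNAs if at least two of its three siRNAs passed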", "calls": "active = raised luciferase; inactive = no rise", "note": "The whole screen tested about 59,000 reagents; below is a random part of them. In the full data, about 1,510 (2.6%) are marked active. 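Calls use total luciferase alone and ignore viability, so some active siRNAs may act by altering cell number.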 Reagents against one gene are numbered here. Further read-outs or replicates are left out here."}
{"gene symbol":"OR13H1","reagent no.":1,"total luciferase, z-score":-1.41,"call":"inactive"}
{"gene symbol":"OR13H1","reagent no.":2,"total luciferase, z-score":0.955,"call":"inactive"}
{"gene symbol":"OR13H1","reagent no.":3,"total luciferase, z-score":1.77,"call":"inactive"}
{"gene symbol":"TMEM81","reagent no.":1,"total luciferase, z-score":1,"call":"inactive"}
{"gene symbol":"TMEM81","reagent no.":2,"total luciferase, z-score":0.145,"call":"inactive"}
{"gene symbol":"TMEM81","reagent no.":3,"total luciferase, z-score":-1.49,"call":"inactive"}
{"gene symbol":"DLX4","reagent no.":1,"total luciferase, z-score":-2.35,"call":"inactive"}
{"gene symbol":"DLX4","reagent no.":2,"total luciferase, z-score":-1.82,"call":"inactive"}
{"gene symbol":"DLX4","reagent no.":3,"total luciferase, z-score":-0.8,"call":"inactive"}
{"gene symbol":"RPL31P31","reagent no.":1,"total luciferase, z-score":-1.36,"call":"inactive"}
{"gene symbol":"RPL31P31","reagent no.":2,"total luciferase, z-score":1.42,"call":"inactive"}
{"gene symbol":"RPL31P31","reagent no.":3,"total luciferase, z-score":-1.68,"call":"inactive"}
{"gene symbol":"ZNF329","reagent no.":1,"total luciferase, z-score":-0.0944,"call":"inactive"}
{"gene symbol":"ZNF329","reagent no.":2,"total luciferase, z-score":-1.22,"call":"inactive"}
{"gene symbol":"ZNF329","reagent no.":3,"total luciferase, z-score":-0.819,"call":"inactive"}
{"gene symbol":"NPIPA1","reagent no.":1,"total luciferase, z-score":0.843,"call":"inactive"}
{"gene symbol":"NPIPA1","reagent no.":2,"total luciferase, z-score":1.39,"call":"inactive"}
{"gene symbol":"NPIPA1","reagent no.":3,"total luciferase, z-score":1,"call":"inactive"}
{"gene symbol":"SERPINA11","reagent no.":1,"total luciferase, z-score":0.352,"call":"inactive"}
{"gene symbol":"SERPINA11","reagent no.":2,"total luciferase, z-score":-0.571,"call":"inactive"}
{"gene symbol":"SERPINA11","reagent no.":3,"total luciferase, z-score":-0.671,"call":"inactive"}
